In publication PMC5840268:
These are yes or no findings as the source states them, for the method shown. Binding seen in cells or lysates may run through a third protein. Some binding calls cover weakened binding; strength is not graded here. For some assays here: Sequences can lack the tags named with a protein. Each block holds one binder with its values, some of them ahead of it.

Amino acid sequences for entries named in this document (tags omitted).
UniProt Q92547: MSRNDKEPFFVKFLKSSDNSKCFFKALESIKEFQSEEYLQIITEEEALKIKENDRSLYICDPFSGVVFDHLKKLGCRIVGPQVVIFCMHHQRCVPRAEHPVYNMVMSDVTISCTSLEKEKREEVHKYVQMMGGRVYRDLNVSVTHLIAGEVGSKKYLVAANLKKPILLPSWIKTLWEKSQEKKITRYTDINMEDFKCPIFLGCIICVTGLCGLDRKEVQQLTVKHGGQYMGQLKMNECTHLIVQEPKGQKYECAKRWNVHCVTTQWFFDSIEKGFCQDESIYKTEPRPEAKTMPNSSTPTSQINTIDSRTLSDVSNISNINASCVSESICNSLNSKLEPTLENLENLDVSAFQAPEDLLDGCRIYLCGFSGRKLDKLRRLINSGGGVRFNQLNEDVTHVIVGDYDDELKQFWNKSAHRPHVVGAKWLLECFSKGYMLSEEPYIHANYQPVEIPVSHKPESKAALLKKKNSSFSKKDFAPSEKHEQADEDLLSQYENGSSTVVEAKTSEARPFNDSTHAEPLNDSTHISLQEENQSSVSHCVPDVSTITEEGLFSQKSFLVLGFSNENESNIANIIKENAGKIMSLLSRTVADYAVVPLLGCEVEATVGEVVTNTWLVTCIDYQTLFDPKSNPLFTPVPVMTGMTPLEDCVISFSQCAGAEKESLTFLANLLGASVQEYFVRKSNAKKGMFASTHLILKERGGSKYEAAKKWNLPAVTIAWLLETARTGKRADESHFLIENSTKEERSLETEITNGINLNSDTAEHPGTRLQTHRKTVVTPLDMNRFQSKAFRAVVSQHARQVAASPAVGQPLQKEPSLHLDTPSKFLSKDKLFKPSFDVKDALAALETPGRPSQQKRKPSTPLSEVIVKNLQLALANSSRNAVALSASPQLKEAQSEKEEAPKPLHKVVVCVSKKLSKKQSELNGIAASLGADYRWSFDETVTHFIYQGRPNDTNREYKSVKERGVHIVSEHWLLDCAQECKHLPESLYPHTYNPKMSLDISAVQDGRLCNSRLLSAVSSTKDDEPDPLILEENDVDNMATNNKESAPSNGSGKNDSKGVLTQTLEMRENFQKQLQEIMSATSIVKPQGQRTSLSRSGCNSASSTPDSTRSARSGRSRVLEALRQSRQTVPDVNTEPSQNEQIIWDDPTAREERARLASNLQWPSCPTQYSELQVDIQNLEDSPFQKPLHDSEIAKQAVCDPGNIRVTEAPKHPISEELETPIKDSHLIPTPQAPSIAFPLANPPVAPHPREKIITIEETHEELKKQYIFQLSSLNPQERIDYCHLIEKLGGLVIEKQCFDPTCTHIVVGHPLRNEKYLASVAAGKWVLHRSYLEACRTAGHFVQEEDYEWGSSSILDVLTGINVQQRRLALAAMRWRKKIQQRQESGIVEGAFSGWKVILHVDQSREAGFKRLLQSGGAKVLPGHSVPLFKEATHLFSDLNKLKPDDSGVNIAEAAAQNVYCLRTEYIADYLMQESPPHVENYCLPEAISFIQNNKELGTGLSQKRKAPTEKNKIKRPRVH
UniProt P38398: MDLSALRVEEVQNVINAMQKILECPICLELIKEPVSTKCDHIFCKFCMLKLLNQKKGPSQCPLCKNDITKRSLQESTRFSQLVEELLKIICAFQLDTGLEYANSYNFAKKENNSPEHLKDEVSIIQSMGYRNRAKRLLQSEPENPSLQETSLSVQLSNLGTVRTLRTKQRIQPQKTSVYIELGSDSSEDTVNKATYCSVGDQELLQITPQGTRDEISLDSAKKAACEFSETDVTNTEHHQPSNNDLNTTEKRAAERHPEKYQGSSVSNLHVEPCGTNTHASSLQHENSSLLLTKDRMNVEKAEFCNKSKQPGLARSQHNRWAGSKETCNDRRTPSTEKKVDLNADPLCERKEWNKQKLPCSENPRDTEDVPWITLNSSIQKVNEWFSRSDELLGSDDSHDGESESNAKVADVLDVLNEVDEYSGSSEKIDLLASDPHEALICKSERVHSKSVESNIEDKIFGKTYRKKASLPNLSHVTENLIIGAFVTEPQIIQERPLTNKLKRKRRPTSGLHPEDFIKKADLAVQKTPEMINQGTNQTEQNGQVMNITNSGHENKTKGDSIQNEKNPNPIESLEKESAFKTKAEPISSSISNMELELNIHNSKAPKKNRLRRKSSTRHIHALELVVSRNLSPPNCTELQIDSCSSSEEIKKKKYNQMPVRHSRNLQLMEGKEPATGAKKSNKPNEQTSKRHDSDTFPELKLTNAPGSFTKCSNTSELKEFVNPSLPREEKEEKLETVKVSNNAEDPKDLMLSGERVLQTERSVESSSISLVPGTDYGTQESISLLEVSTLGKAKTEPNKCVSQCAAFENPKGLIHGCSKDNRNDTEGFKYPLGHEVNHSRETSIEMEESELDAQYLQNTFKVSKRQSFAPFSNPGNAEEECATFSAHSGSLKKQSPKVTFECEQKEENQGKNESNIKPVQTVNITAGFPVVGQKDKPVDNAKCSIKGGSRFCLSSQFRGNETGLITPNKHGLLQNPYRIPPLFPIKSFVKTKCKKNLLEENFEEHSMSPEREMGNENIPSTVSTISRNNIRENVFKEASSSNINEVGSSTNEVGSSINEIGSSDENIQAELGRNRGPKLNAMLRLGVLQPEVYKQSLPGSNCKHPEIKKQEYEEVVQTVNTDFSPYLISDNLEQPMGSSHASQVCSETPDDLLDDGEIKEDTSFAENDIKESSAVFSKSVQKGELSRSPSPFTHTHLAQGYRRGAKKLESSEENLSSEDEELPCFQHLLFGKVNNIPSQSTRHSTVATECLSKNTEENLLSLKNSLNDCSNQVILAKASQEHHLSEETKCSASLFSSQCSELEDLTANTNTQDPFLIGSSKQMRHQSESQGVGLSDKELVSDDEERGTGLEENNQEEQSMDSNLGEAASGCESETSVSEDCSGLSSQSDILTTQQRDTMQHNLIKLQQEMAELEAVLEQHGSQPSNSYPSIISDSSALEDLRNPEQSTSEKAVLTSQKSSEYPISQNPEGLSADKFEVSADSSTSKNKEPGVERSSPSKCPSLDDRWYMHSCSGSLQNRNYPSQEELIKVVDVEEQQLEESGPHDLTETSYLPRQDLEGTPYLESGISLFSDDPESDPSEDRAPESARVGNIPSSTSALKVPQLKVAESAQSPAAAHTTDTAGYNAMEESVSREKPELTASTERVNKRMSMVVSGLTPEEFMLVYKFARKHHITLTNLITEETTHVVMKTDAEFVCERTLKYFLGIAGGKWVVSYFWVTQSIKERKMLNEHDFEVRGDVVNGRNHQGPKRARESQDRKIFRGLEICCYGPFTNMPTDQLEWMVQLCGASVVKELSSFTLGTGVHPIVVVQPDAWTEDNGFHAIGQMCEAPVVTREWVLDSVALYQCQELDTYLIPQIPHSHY

Legend:
[1] = molecular target: tagged exogenous TOPBP1 expressed in HeLa cells (UniProt Q92547); test: co-IP; HeLa cells expressing both tagged EDC4 and tagged TOPBP1; one immunoprecipitated, immunoblotting with indicated antibodies
[2] = molecular target: BRCA1, endogenous in HeLa cells (human (endogenous in HeLa)) (UniProt P38398); test: co-IP; endogenous proteins from HeLa cells; lysis in NTEN buffer (NP-40 0.5%, Tris 20 mM pH 7.4, NaCl 150 mM, EDTA 1 mM, benzonase); specific antibody and Protein G magnetic beads overnight at 4 °C; western blot

- binding [1]: binds
B1: tagged exogenous EDC4 expressed in HeLa cells (protein, UniProt Q6P2E9-1 1-1401)
chain: MASCASIDIEDATQHLRDILKLDRPAGGPSAESPRPSSAYNGDLNGLLVPDPLCSGDSTSANKTGLRTMPPINLQEKQVICLSGDDSSTCIGILAKEVEIVASSDSSISSKARGSNKVKIQPVAKYDWEQKYYYGNLIAVSNSFLAYAIRAANNGSAMVRVISVSTSERTLLKGFTGSVADLAFAHLNSPQLACLDEAGNLFVWRLALVNGKIQEEILVHIRQPEGTPLNHFRRIIWCPFIPEESEDCCEESSPTVALLHEDRAEVWDLDMLRSSHSTWPVDVSQIKQGFIVVKGHSTCLSEGALSPDGTVLATASHDGYVKFWQIYIEGQDEPRCLHEWKPHDGRPLSCLLFCDNHKKQDPDVPFWRFLITGADQNRELKMWCTVSWTCLQTIRFSPDIFSSVSVPPSLKVCLDLSAEYLILSDVQRKVLYVMELLQNQEEGHACFSSISEFLLTHPVLSFGIQVVSRCRLRHTEVLPAEEENDSLGADGTHGAGAMESAAGVLIKLFCVHTKALQDVQIRFQPQLNPDVVAPLPTHTAHEDFTFGESRPELGSEGLGSAAHGSQPDLRRIVELPAPADFLSLSSETKPKLMTPDAFMTPSASLQQITASPSSSSSGSSSSSSSSSSSLTAVSAMSSTSAVDPSLTRPPEELTLSPKLQLDGSLTMSSSGSLQASPRGLLPGLLPAPADKLTPKGPGQVPTATSALSLELQEVEPLGLPQASPSRTRSPDVISSASTALSQDIPEIASEALSRGFGSSAPEGLEPDSMASAASALHLLSPRPRPGPELGPQLGLDGGPGDGDRHNTPSLLEAALTQEASTPDSQVWPTAPDITRETCSTLAESPRNGLQEKHKSLAFHRPPYHLLQQRDSQDASAEQSDHDDEVASLASASGGFGTKVPAPRLPAKDWKTKGSPRTSPKLKRKSKKDDGDAAMGSRLTEHQVAEPPEDWPALIWQQQRELAELRHSQEELLQRLCTQLEGLQSTVTGHVERALETRHEQEQRRLERALAEGQQRGGQLQEQLTQQLSQALSSAVAGRLERSIRDEIKKTVPPCVSRSLEPMAGQLSNSVATKLTAVEGSMKENISKLLKSKNLTDAIARAAADTLQGPMQAAYREAFQSVVLPAFEKSCQAMFQQINDSFRLGTQEYLQQLESHMKSRKAREQEAREPVLAQLRGLVSTLQSATEQMAATVAGSVRAEVQHQLHVAVGSLQESILAQVQRIVKGEVSVALKEQQAAVTSSIMQAMRSAAGTPVPSAHLDCQAQQAHILQLLQQGHLNQAFQQALTAADLNLVLYVCETVDPAQVFGQPPCPLSQPVLLSLIQQLASDLGTRTDLKLSYLEEAVMHLDHSDPITRDHMGSVMAQVRQKLFQFLQAEPHNSLGKAARRLSLMLHGLVTPSLP

- binding [2]: binds
B2: EDC4, endogenous in HeLa cells (protein, UniProt Q6P2E9-1 1-1401)
chain: B1 chain
